PubChem BioAssay AID504764 | Drosophila RNAi Screening Center | 2011

Test: 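Genes whose knock-down alters Notch-dependent transcription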 (primary screen)
System: Drosophila Kc167 cells
Knock-down reagent: long dsRNA against Drosophila genes
Timing: about 5 days (4 days dsRNA, then 24 h after transfection)
Conditions: transfection of constitutively active membrane-tethered Notch lacking the extracellular domain, read 24 h later
Detection: 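Light from a Notch-responsive E(spl)m3 luciferase reporter under active Notch, with control-promoter and no-Notch reporter wells to normalise; raw counts from paired wells a and b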
Reading the numbers: induced reporter light, run 1, well a and induced reporter light, run 1, well b: higher = more light from the Notch target reporter with active Notch; control promoter light, run 1, well a and control promoter light, run 1, well b: higher = more light from the viral control promoter (cell number, transfection, viability); uninduced reporter light, run 1, well a: higher = more light from the Notch target reporter without active Notch
Rule for the call: 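Wells with low control signal or poorly matching duplicates excluded; duplicates averaged; per source plate, z beyond ±2 for induced/control log2 ratio or beyond ±1.8 for induced/uninduced marks a hit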
Meaning of the calls: active = modifier hit (raised or lowered Notch signal); inactive = not a hit
The screen tested about 22,000 reagents; this is an unselected part of those that have a named target and a result. Over the whole deposit, 403 (1.9%) got an active call. 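Unnormalised raw counts per well; ratio z-scores behind the hit calls and whether each hit raises or lowers signal are not deposited.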 A plus sign joins genes that one reagent is predicted to hit. The record does not give: the amount of reagent.

target	DRSC id	induced reporter light, run 1, well a	induced reporter light, run 1, well b	control promoter light, run 1, well a	control promoter light, run 1, well b	uninduced reporter light, run 1, well a	Call
CG5267	DRSC06928	1.20e5	81655	1.14e5	1.09e5	8340	inactive
Hr78 (Hormone-receptor-like in 78)	DRSC11866	1.57e5	1.55e5	55330	69925	10138	inactive
CG13369	DRSC18481	1.12e5	89410	1.56e5	1.94e5	8320	inactive
btz (barentsz)	DRSC14566	1.70e5	1.93e5	2.49e5	2.69e5	16275	inactive
CG32639	DRSC18972	90200	81285	1.38e5	94690	7265	inactive
GstO2 (Glutathione S transferase O2)	DRSC10691	1.15e5	1.19e5	84020	31010	8125	inactive
CG5618	DRSC11780	1.64e5	1.41e5	1.28e5	1.53e5	13480	inactive

Ordered by “induced reporter light, run 1, well a” (lowest first): some entries from above
target	DRSC id	induced reporter light, run 1, well a	induced reporter light, run 1, well b	control promoter light, run 1, well a	control promoter light, run 1, well b	uninduced reporter light, run 1, well a	Call
CG32639	DRSC18972	90200	81285	1.38e5	94690	7265	inactive
GstO2 (Glutathione S transferase O2)	DRSC10691	1.15e5	1.19e5	84020	31010	8125	inactive
CG5618	DRSC11780	1.64e5	1.41e5	1.28e5	1.53e5	13480	inactive

Next results follow:
target	DRSC id	induced reporter light, run 1, well a	induced reporter light, run 1, well b	control promoter light, run 1, well a	control promoter light, run 1, well b	uninduced reporter light, run 1, well a	Call
MRP (Multidrug-Resistance like Protein 1)	DRSC02942	2.06e5	2.22e5	2.03e5	1.97e5	19520	inactive
Ptip (PAX transcription activation domain interacting protein)	DRSC10660	2.50e5	2.14e5	3.01e5	2.41e5	4340	inactive
Ptip (PAX transcription activation domain interacting protein)	DRSC11048	1.15e5	85205	80735	70900	7025	inactive
CG42527 (retired record) + Hr4	DRSC18495	1.23e5	1.02e5	1.56e5	1.74e5	7190	inactive
CG42527 (retired record) + Hr4	DRSC22269						inactive
CG42527 (retired record) + Hr4	DRSC22677						inactive
CG13258	DRSC02244	1.49e5	1.39e5	1.45e5	1.91e5	13395	inactive
CG3349	DRSC10359	1.63e5	1.72e5	2.08e5	1.40e5	6920	inactive
cN-IIIB (cytosolic 5'-nucleotidase IIIB)	DRSC04359	2.09e5	1.75e5	1.87e5	1.69e5	14255	inactive
Mlh1	DRSC07473	1.57e5	91160	86430	83445	9385	inactive
Nep1 (Neprilysin 1)	DRSC18388	2.20e5	2.19e5	2.44e5	2.36e5	16990	inactive
Nep1 (Neprilysin 1)	DRSC18389	16432	16235	28095	34590	5745	inactive
CG13364	DRSC17898	1.22e5	1.16e5	1.95e5	1.40e5	8528	inactive
CG13364	DRSC21263	97885	68235	78070	1.05e5	9450	inactive
